For test [1], the target named is T1, Nrp1 c domain (residues 589-854), His-tagged (UniProt P97333).
T1 sequence: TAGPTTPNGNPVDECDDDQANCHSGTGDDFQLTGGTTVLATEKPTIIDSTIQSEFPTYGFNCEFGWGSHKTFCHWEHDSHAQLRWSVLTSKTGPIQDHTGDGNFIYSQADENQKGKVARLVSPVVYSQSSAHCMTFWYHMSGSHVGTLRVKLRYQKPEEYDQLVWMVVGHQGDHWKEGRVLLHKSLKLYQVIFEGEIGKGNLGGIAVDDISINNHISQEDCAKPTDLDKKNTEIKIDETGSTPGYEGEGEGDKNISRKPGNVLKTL
Nature of the test: co-IP; His-tagged Nrp1, a1a2, b1b2 or c (100 nM; 10 pmol in 100 uL PBS) mixed with AP-Sema3A (0, 50 or 100 nM), precipitated with 2 ug anti-6x-His monoclonal antibody; AP-Sema3A in the precipitate quantified by alkaline phosphatase activity (pNPP).

The target in test [2] is T2, Nrp1 b1b2 domain (residues 270-588), His-tagged (UniProt P97333).
T2 sequence: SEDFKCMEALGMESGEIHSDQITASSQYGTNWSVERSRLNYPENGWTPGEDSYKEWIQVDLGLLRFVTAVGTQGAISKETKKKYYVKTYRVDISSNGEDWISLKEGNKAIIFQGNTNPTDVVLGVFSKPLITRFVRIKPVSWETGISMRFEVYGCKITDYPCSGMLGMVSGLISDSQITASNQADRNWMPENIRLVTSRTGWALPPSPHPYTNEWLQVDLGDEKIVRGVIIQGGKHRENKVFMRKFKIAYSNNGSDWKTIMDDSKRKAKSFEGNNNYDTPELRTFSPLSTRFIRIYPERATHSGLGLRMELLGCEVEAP
Described as above.

No constants are given. Whether binding was seen depends on the method and setting. In cells and extracts the contact can be indirect. Tags and fused reporters may be left off the sequences shown.

B1: alkaline phosphatase-fused Sema3A (ligand, UniProt Q90607 23-772)
chain: QHVKNNVPRLKLSYKEMLESNNIVNFNGLANSSSYHTFLLDEERSRLYVGAKDHIFSFNLVNIKEYQKIVWPVSHSRRDECKWAGKDILRECANFIKVLKTYNQTHLYACGTGAFHPMCTYIEVGSHPEDNIFRMEDSHFENGRGKSPYDPKLLTASLLVDGELYSGTAADFMGRDFAIFRTLGHHHPIRTEQHDSRWLNDPRFISAHLIPESDNPEDDKIYFFFRENAIDGEHTGKATHARIGQICKNDFGGHRSLVNKWTTFLKARLICSVPGPNGIDTHFDELQDVFLMNSKDPKNPIVYGVFTTSSNIFKGSAVCMYSMTDVRRVFLGPYAHRDGPNYQWVPYQGRVPYPRPGTCPSKTFGGFDSTKDLPDEVITFARSHPAMYNPVFPINSRPIMIKTDVDYQFTQIVVDRVDAEDGQYDVMFIGTDIGTVLKVVSIPKETWHELEEVLLEEMTVFREPTVISAMKISTKQQQLYIGSATGVSQLPLHRCDVYGKACAECCLARDPYCAWDGSSCSRYFPTAKRRTRRQDIRNGDPLTHCSDLQHHDNPSGQTLEEKIIYGVENSSTFLECSPKSQRAIVYWQFQKQNDDHKVEIKVDDRMIRTEQGLLLRSLQRRDSGIYFCHAVEHGFIQTLLKVTLEVIDTDHLEELLHKEEDADASKTKDATNSMTPSQKIWYRDFMQLINHPNLNTMDEFCEQVWKRDRKQRRQRPANAQVNTNKWKHLQENKKGRNRRTHEFERAPRSV
Turning to B1, the binding entry is “no binding (tested: 100 nM AP-Sema3A with 100 nM c)” in test [1] and “no binding (tested: 100 nM AP-Sema3A with 100 nM b1b2)” in test [2].
